Reference: PubChem BioAssay AID2551 (National Center for Advancing Translational Sciences (NCATS), 2010)
Screen size: about 310,000 compounds; about 17,000 (5.5%) were called active. Inconclusive results, whose numbers are uncertain, are shown with a selection of clear calls. The call rests on the fitted dose curve; in most records, active means well fitted inhibition curve with a large enough effect; inconclusive means small, poorly fitted or top-dose-only effect, or effect the other way; inactive means no such curve, though single readings can be large or run the other way. Where the call is inconclusive, the potency comes from a doubtful curve fit.

By UniProt entry, the sequences of proteins in these tests, tags left out. Where a name states a change or a piece, a line headed by the entry shows the natural chain unless it says otherwise.
UniProt P51450: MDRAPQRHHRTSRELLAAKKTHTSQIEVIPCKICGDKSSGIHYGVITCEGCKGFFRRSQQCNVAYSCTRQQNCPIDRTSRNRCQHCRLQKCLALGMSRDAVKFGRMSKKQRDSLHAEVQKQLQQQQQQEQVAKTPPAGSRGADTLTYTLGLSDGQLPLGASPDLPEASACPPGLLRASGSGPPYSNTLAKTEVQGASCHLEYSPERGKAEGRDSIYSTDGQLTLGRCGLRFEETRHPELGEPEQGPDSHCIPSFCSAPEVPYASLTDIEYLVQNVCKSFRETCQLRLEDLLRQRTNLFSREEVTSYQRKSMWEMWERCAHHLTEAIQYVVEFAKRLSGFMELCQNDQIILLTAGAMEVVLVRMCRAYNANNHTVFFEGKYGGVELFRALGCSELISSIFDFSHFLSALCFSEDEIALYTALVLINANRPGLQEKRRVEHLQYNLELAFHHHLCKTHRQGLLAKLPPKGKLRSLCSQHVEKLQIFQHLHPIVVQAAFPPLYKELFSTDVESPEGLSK

molecular target: Nuclear receptor ROR-gamma (Mus musculus) (UniProt P51450); assay: qHTS for inhibitors of ROR gamma transcriptional activity; details: Drosophila S2 Gal4-RORgamma UAS-luciferase reporter, 20 h; activity change, negative = inhibition: at 53.6 µM (top of the series); further: nearly all actives have a fitted effect of over 60% in size
How it was run: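 Schneider cells (Drosophila), stable Gal4 DBD–ROR gamma + UAS-luc; 1 hr cmpd preincubation; Cu2+ induction 700 uM final; 20 hr ambient; luminescence.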
On the % scale 0 is the no-effect control and ±100 the full control effect; potency means the concentration at half of the fitted maximal effect.

Row | Structure (SMILES) | Potency | activity change, negative = inhibition
1 | CCN(CC)C(=S)SCC(=O)Nc1nc(-c2ccccc2)c(-c2ccccc2)o1 | active: 4.47 µM | –
2 | CCN(CC)CCN(C(=O)CCS(=O)(=O)c1ccccc1)c1nc2cc(OC)c(OC)cc2s1 | inconclusive: 22.4 µM [inhibitor, single point] | –
3 | COc1cc(OC)cc(C2=NC3(CCC(C)CC3)NC2=S)c1 (stereo unspecified) | active: 1.41 µM | –
4 | Cc1ccc(Cn2c(SCCN3CCCCC3)nc3c2c(=O)[nH]c(=O)n3C)cc1 | – | inactive: -25.3%
5 | CCOc1ccc(NC(=S)N(CCc2c(C)[nH]c3ccc(C)cc23)Cc2ccncc2)cc1 | inconclusive: 25.1 µM [activator, single point] | –
6 | CC(C)(C)c1ccc(C(=O)NCCOc2ccccc2)cc1 | active: 8.91 µM | –
7 | O=C(NCc1ccccn1)c1cc(-c2ccccc2Cl)on1 | inconclusive: 6.31 µM [activator, single point] | –
8 | COc1ccc(C(NC(=O)N2CC(C)OC(C)C2)C(Cl)(Cl)Cl)cc1F (stereo unspecified) | inconclusive: 11.2 µM [activator, partial curve] | –
9 | c1cc2c3c(cccc3c1)C(N1CCCCCC1)=N2 | active: 7.94 µM | –
10 | O=S(=O)(Nc1nccs1)c1ccc(NCc2cc(Br)cc(Br)c2O)cc1 | – | inactive: 30.4%
11 | COc1cc(O)sc1C=Nc1ccc(Cl)cc1 | inconclusive: 17.8 µM [activator, partial curve] | –
12 | CN1C(=O)/C(=C/c2ccc(OCc3cccc(F)c3)cc2)NC1=S | active: 7.08 µM | –
13 | COc1ccc(-c2ccc(-c3noc(-c4ccccc4)n3)c(OC)n2)cc1 | – | inactive: -10.5%
14 | COc1cc(S(=O)(=O)N2CCOCC2)ccc1NC(=O)CSc1n[nH]c(=O)[nH]c1=O | inconclusive: 15.8 µM [inhibitor, single point] | –
15 | CN(C)c1ccc(C(=O)/C=C/c2ccc(Br)cc2)cc1 | inconclusive: 4.47 µM [activator, single point] | –
16 | CCc1nnc(NC(=O)c2ccc(S(=O)(=O)N(CC)Cc3ccccc3)cc2)o1 | active: 0.1 µM | –
17 | CC(C)(C)C(=O)NC(=S)NNC(=O)c1sc2ccccc2c1Cl | active: 0.631 µM | –
18 | O=C(O)C1C2C=CC(O2)C1C(=O)Nc1ccc(S(=O)(=O)N2CCc3ccccc32)cc1 (stereo unspecified) | – | inactive: 11.6%
19 | O=C(CC(NC(=O)c1ccccc1)c1ccccc1)Nc1cccc2ccccc12 (stereo unspecified) | – | inactive: 1.19%
20 | CCn1c(CNc2ccc(Cl)cc2)nnc1SCc1ccccc1 | – | inactive: 0.541%
21 | Cc1ccc(C)c(C(=O)Cn2ncc(Cl)c(Cl)c2=O)c1 | inconclusive: 35.5 µM [inhibitor, single point] | –
22 | Cc1ccc(C(=O)CC(=O)COc2ccc(Cl)cc2)cc1 | active: 12.6 µM | –
23 | CCN(CC)c1ccc(/C=C2\CCC(/C=C(\C#N)C(=O)Nc3ccccc3F)=C2N2CCOCC2)cc1 | – | inactive: -8.34%
24 | CC(=Nc1ccc(C)cc1)c1sc2ccccc2c1O | inconclusive: 31.6 µM [inhibitor, single point] | –
25 | COc1ccc(NC(=O)c2ccc(F)cc2)cc1S(=O)(=O)Nc1cc(C)ccc1Br | inconclusive: 12.6 µM [activator, partial curve] | –
26 | CC(C)Cn1c(-c2ccc(F)cc2)n[nH]c1=S | active: 7.08 µM | –

Single records, from the list above.
CCN(CC)C(=S)SCC(=O)Nc1nc(-c2ccccc2)c(-c2ccccc2)o1 is entered as Potency: active: 4.47 µM
CCn1c(CNc2ccc(Cl)cc2)nnc1SCc1ccccc1 is entered as activity change, negative = inhibition: inactive: 0.541%
CN(C)c1ccc(C(=O)/C=C/c2ccc(Br)cc2)cc1 is entered as Potency: inconclusive: 4.47 µM [activator, single point]

Next part

Row | Structure (SMILES) | Potency | activity change, negative = inhibition
27 | Clc1ccc(Cn2ncc3c(N4CCCC4)ncnc32)cc1 | – | inactive: 5.3%
28 | C=CCNC(=S)N/N=C(\C)c1cc(OC)c(OC)c(OC)c1 | active: 2 µM | –
29 | Cc1nn(S(=O)(=O)c2cccs2)c(C)c1Sc1ccc([N+](=O)[O-])cc1 | inconclusive: 35.5 µM [activator, single point] | –
30 | CN(c1ccc(C(=O)N/N=C/c2cccc([N+](=O)[O-])c2)cc1)S(=O)(=O)c1ccccc1 | inconclusive: 10 µM [activator, partial curve] | –
31 | Cc1ccc(NC(=O)c2cnccn2)cc1 | – | inactive: 0.315%
32 | CCc1ccccc1N(C)C(=O)CCc1nc(-c2ccc(C)cc2)no1 | inconclusive: 20 µM [inhibitor, single point] | –
33 | Cc1ccc2[nH]cc(S(=O)(=O)c3ccc(F)cc3)c(=O)c2c1 | inconclusive: 31.6 µM [activator, single point] | –
34 | O=C(CCCOc1ccc(Cl)cc1Cl)NN1CCOCC1 | inconclusive: 35.5 µM [activator, single point] | –
35 | CCOc1ccc(CCNc2cc(C)nc3ncnn23)cc1OCC | inconclusive: 20 µM [activator, single point] | –
36 | C/C(Cl)=C/Cn1c(SCC(C)C)nc2c1c(=O)[nH]c(=O)n2C | – | inactive: -6.54%
37 | Cn1cccc1CC(=O)N/N=C\c1c2ccccc2cc2ccccc12 | inconclusive: 12.6 µM [inhibitor, partial curve] | –
38 | CCCc1cc(C(=O)NCc2ccccc2)no1 | inconclusive: 6.31 µM [activator, single point] | –
39 | CC(C)[C@H]1c2ccc(F)cc2CC[C@@]1(CCN(C)CCCc1nc2ccccc2[nH]1)OC(=O)C1CC1 | inconclusive: 31.6 µM [inhibitor, single point] | –
40 | S=C(NCc1ccccn1)Nc1ccc(Br)cc1Cl | active: 7.08 µM | –
41 | COc1ccccc1C1C2=C(COC2=O)Nc2cc3c(cc21)OCO3 (stereo unspecified) | inconclusive: 2.82 µM [inhibitor, full curve, poor fit] | –
42 | O=C(NCc1nnc(SCC(=O)N2CCCCC2)o1)c1c(F)cccc1Cl | – | inactive: 5.6%
43 | C=CCOC(=O)N[C@@H](Cc1ccccc1)/C(C(=O)OC)=C(\C)NCc1ccccc1 | inconclusive: 10 µM [inhibitor, partial curve, poor fit] | –
44 | CCCn1c(COc2ccccc2OC)nc2ccccc21 | active: 10 µM | –
45 | CCCCn1c(SCC(=O)NCc2ccco2)nc2ccc(N3CCOCC3)cc2c1=O | active: 6.31 µM | –
46 | O=C(CC(CC(=O)c1ccc(Br)cc1)c1cccnc1)c1ccc(Br)cc1 | inconclusive: 1.41 µM [activator, partial curve] | –
47 | CC(=O)c1c(C)[nH]c(C(=O)OCCCCN2C(=O)c3ccccc3C2=O)c1C | inconclusive: 35.5 µM [inhibitor, single point] | –
48 | Cc1c(Br)c([N+](=O)[O-])nn1CC(=O)Nc1ccc(Cc2ccncc2)cc1 | inconclusive: 25.1 µM [activator, single point] | –
49 | O=C(NNC(=O)c1cc2cc(Br)ccc2oc1=O)c1ccc(O)cc1O | active: 10 µM | –
50 | COC(=O)CCCNC(=O)OCc1ccc([N+](=O)[O-])cc1 | inconclusive: 35.5 µM [inhibitor, single point] | –
51 | O=C/C(=C\Nc1ccc(Cl)cn1)c1nc2ccccc2o1 | active: 14.1 µM | –
52 | CCc1ccc(/C=C(/C#N)C(N)=S)s1 | inconclusive: 15.8 µM [inhibitor, single point] | –

Row | Structure (SMILES) | Potency | activity change, negative = inhibition
53 | O=C(CCCc1c[nH]c2ccccc12)N1CCN(S(=O)(=O)c2cccs2)CC1 | inconclusive: 7.94 µM [activator, partial curve] | –
54 | c1ccc2c(Nc3nc4c(s3)CCCC4)cccc2c1 | active: 12.6 µM | –
55 | CC(C)(C)c1cc(C(=O)N2CCc3ccccc3C2)ccn1 | – | inactive: 33.4%
56 | O=C1OC(=O)C2C3CCC(O3)C12 (stereo unspecified) | inactive | –
57 | O=C(COc1ccc(/C=N/NC(=O)c2ccncc2)cc1)Nc1ccc([N+](=O)[O-])cc1 | inconclusive: 0.282 µM [activator, full curve, poor fit] | –
58 | COc1cccc(C2CC(=O)Nc3cc(OC)c(OC)cc32)c1 (stereo unspecified) | inconclusive: 35.5 µM [activator, single point] | –
59 | CCOC(=O)CN1C(=O)C(Sc2n[nH]c(-c3cccc(C)c3)n2)CCc2ccccc21 (stereo unspecified) | inconclusive: 12.6 µM [activator, partial curve] | –
60 | COc1cc(OC)nc(-n2ncc(Br)c(Br)c2=O)n1 | active: 2.24 µM | –
61 | CC1CN(c2ccc([N+](=O)[O-])c(NCCOc3ccc(Cl)cc3)c2)CC(C)N1 (stereo unspecified) | inconclusive: 17.8 µM [inhibitor, single point] | –
62 | COC(=O)c1cc(NC(=O)C2COc3ccccc3O2)cc(C(=O)OC)c1 (stereo unspecified) | – | inactive: 33%
63 | CCc1nnc(NC(=O)CSc2nnc(CNc3ccc(Cl)cc3)o2)s1 | inconclusive: 22.4 µM [inhibitor, single point] | –
64 | COC(=O)c1cc(NC(=O)C2COc3ccccc3O2)ccc1Cl (stereo unspecified) | inconclusive: 14.1 µM [activator, single point] | –
65 | CCCCn1c(N)c(-c2nc3ccccc3s2)c2c([N+](=O)[O-])nn(CC)c(=O)c21 | – | inactive: -0.369%
66 | COc1ccc(Cn2c(=O)[nH]c3cc(C(=O)NC4CCN(Cc5ccccc5)CC4)ccc32)cc1 | – | inactive: 36.5%
67 | CN1C(=O)NC(c2ccccc2)C2=C1CN(Cc1ccco1)C2=O (stereo unspecified) | – | inactive: 14%
68 | CC(=O)Nc1ccc(NC(=O)C(C)OC(=O)/C=C/c2cn(-c3ccccc3)nc2-c2cccnc2)cc1 (stereo unspecified) | active: 12.6 µM | –
69 | COc1ccc(C(=O)C2CCCN(Cc3c[nH]c4ccccc34)C2)c(OC)c1 (stereo unspecified) | – | inactive: -12.4%
70 | CC12CC3(C)CC(C)(C1)CC(C(=O)NC(=S)N1CCOCC1)(C2)C3 | active: 0.891 µM | –
71 | Cc1ccc(C(=O)Nc2ccc(S(=O)(=O)Nc3cnc4ccccc4n3)cc2)cc1 | inconclusive: 15.8 µM [activator, single point] | –
72 | COc1ccc(-c2[nH]ncc2CNC(C)c2cn(C)nc2C)c(F)c1 (stereo unspecified) | – | inactive: 13.6%
73 | O=C(/C=C/c1cccs1)N1CCN(Cc2ccc3c(c2)OCO3)CC1 | – | inactive: 39.9%
74 | CC(NCc1ccc(-c2ccccc2)cc1)C(O)c1ccccc1 (stereo unspecified) | inconclusive: 2.82 µM [inhibitor, single point] | –
75 | CN(C)C(=S)NC(=O)C12CC3(C)CC(C)(CC(C)(C3)C1)C2 | active: 2.51 µM | –
76 | O=C(NCc1ccccc1)c1c[nH]c2ccc(F)cc2c1=O | inconclusive: 10 µM [activator, partial curve] | –
